# Measurements as given in patent US20040139485A1.
# Results are given in words; binding and its absence hold for the method and conditions named. For some assays here: Binding seen in cells or lysates may run through a third protein. Some entries that bind do so weakly or less than the wild type. For some assays here: Where a sequence is shown, tags or fusion partners need not be part of it.
# B1: BOG, complete open reading frame, cloned into pGAD424 (GAL4 two-hybrid fusion) (protein, not shown: large carriers)
# chain: MVSPTKAVIVPGNGGGDVATHGWYGWVRKGLEQIPGFQCLAKNMPDPITARESIWLPFMETELHCDEKTIIIGHSSGAIAAMRYAETHQVYALILVSAYTSDLGDENERASGYFSRPWQWEKIKANCPHIIQFGSTDDPFLPWKEQQEVADSWTPNCTNSLTVVTFRTQSSMN
# B2: rat BOG (B5T Over-expressed Gene) protein (protein)
# chain: B1 chain
# How the values were obtained:
# [1] = target: T1, fragment of Rb (1.9 kb BsmHI-SalI fragment of Rb from pASRB2) cloned into pGBT9 (UniProt P06400); assay: yeast two-hybrid (GAL4), growth on selective media and β-galactosidase
# T1 sequence (looked up): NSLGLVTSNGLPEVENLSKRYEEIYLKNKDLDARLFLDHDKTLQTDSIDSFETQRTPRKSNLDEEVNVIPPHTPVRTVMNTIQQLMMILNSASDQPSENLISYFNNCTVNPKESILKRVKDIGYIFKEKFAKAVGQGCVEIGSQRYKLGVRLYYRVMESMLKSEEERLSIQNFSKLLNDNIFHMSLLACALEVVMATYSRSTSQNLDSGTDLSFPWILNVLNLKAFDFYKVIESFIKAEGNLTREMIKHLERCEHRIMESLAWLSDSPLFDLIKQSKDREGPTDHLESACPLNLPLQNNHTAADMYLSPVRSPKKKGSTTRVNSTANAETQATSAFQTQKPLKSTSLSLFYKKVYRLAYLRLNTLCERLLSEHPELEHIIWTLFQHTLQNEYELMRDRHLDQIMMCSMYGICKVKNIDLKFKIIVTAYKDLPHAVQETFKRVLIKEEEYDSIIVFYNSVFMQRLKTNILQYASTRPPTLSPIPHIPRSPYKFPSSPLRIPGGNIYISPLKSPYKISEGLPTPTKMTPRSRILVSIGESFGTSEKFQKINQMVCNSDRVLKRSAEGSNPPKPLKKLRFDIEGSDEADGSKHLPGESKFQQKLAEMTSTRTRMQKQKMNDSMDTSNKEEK
# [2] = target: T1, fragment of Rb (1.9 kb BsmHI-SalI fragment of Rb from pASRB2) cloned into pGBT9; assay: yeast two-hybrid (GAL4), X-gal staining and growth without histidine
# [3] = target: T2, pRb (retinoblastoma gene product), endogenous in rat liver epithelial cell extracts (rat) (UniProt P33568); assay: co-immunoprecipitation from whole cell lysates, Western blot
# T2 sequence (looked up): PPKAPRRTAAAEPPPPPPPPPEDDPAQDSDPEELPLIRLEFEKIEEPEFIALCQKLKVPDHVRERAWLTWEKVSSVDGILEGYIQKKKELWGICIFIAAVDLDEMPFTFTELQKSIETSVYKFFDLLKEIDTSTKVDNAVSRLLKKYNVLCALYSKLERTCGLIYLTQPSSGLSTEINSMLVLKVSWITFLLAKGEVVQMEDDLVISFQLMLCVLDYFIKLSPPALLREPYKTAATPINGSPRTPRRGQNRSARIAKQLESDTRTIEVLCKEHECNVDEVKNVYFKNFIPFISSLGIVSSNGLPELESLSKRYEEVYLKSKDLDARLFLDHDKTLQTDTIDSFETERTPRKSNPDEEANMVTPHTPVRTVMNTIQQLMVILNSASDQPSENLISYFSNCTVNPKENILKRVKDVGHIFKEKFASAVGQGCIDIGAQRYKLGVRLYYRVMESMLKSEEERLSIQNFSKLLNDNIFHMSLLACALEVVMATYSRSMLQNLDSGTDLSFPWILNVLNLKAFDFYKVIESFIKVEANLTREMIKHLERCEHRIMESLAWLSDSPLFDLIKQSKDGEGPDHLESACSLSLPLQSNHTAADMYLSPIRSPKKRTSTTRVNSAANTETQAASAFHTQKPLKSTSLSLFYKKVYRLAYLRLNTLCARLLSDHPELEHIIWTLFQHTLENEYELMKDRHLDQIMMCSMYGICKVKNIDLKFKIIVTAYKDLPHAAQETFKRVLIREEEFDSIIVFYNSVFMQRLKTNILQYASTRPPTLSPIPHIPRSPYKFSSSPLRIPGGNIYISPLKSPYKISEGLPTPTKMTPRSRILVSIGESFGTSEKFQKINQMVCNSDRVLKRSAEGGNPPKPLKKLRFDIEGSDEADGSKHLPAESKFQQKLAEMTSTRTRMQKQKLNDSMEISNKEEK
# [4] = target: T2, pRb (retinoblastoma gene product), endogenous in rat liver epithelial cell extracts (rat); assay: co-immunoprecipitation from RLE whole cell lysates with anti-BOG, anti-pRb, anti-p130 and anti-p107, Western blot
# [5] = target: T2, pRb (retinoblastoma gene product), endogenous in rat liver epithelial cell extracts (rat); assay: co-immunoprecipitation from phi 13 whole cell extracts, Western blot
Binder,binding [1],binding [2],binding [3],binding [4],binding [5]
B1,binds,binds,,,
B2,,,binds,binds,binds
